# “And” between values parts separate entries of the source, which are not always exact repeats. Equal entries are not always repeated. The list shows a part of the results. Further columns of the screen follow, without active or inactive calls. Most of these compounds were active or inconclusive in the main read-out, so they are no random draw. Words in brackets tell the shape of the fitted curve; partial curves, single points and poor fits give uncertain potencies.
# Test: qHTS Assay to Find Inhibitors of Chronic Active B-Cell Receptor Signaling
# Conditions: ABC-DLBCL IkBa-CBG/CBR reporter, luminescence ratio (green luciferase fused to IkBa over red control in TMD8 lymphoma cells), 4 h
# Outline: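 Concentration-response series (up to 46 uM) were applied to TMD8 dual-reporter cells for 4 h at 37C with doxycycline. Green/red ratio, after filter-overlap correction, defined %Activity; red signal alone was normalised to basal cells and zero luminescence.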
# [1] = measured here: CBR red luminescence, cell number
# [2] = measured here: IkBa-CBG green luminescence
Compound,AC50 [1],AC50 [2]
O=C(c1cccnc1)N(c1cc2sc(=O)oc2c2ccccc12)S(=O)(=O)c1ccccc1,"11.6 µM [falling, partial curve]",–
O=C(COC(=O)c1cccc(-n2cnnn2)c1)c1ccc(F)cc1,"7.31 µM [falling, partial curve]",–
O=C(Nc1nc(-c2ccccc2)cs1)c1cccc([N+](=O)[O-])c1,"17.8 µM [falling, single point]",–
CCN1CCN(C(=O)c2cn(CC)c3ccc(S(=O)(=O)N(C)C)cc3c2=O)CC1,"29.1 µM [rising, single point]",–
CCOC(=O)c1cnc2c(-c3ccccc3)cnn2c1C,"0.447 µM [falling, full curve, poor fit]",–
O=C(NC1CCCCC1)C(=S)NC1CCCCC1,"2.82 µM [rising, full curve, poor fit]",–
COc1ccc(C2CC(c3ccccc3)=NN2S(=O)(=O)c2ccccc2)c(OC)c1 (stereo not drawn),"1.3 µM [rising, full curve, poor fit]",–
CN1CCC(Oc2ccc(Sc3ccccc3)cc2)CC1,"16.4 µM [falling, single point]",–
Cc1ccccc1-c1nc2sc3c(c2c(=O)o1)CCC3,"2.31 µM [falling, full curve, poor fit]",–
Fc1ccc(/C=C\c2nccc3c2[nH]c2ccccc23)cc1,"11.2 µM [falling, single point]",–
COC(=O)C1=C(C)Nc2ncnn2C1c1ccccn1 (stereo not drawn),"0.146 µM [falling, full curve]",–
O=c1oc2ccccc2c(NC2CCCCC2)c1NS(=O)(=O)c1ccc(Br)cc1,"7.94 µM [falling, partial curve]",–
CCOc1cc(/C=C2/SC(=S)N(Cc3ccccc3)C2=O)ccc1O,"11.2 µM [rising, partial curve, poor fit]",–
CNC(=S)N(C)/N=C1/C(=O)N(Cc2c(Cl)cccc2Cl)c2ccccc21,"16.4 µM [rising, partial curve]",–
C=CCOn1c(=O)c(-c2cccs2)[n+]([O-])c2ccccc21,"0.291 µM [falling, full curve]",–
C[C@H](CO)N1C[C@H](C)[C@H](CN(C)Cc2ccncc2)Oc2ccc(NC(=O)Nc3ccc(C(F)(F)F)cc3)cc2CC1=O,–,"29.1 µM [falling, single point]"
CSC1=N/C(=C\c2ccc(C)s2)C(=O)S1,"2.91 µM [rising, full curve, poor fit]",–
CC(C)C(=O)N1CCN(c2ccccc2N)CC1,"10 µM [falling, partial curve, poor fit]",–
Cc1ccc2oc(-c3cccc(NC(=S)NC(=O)/C=C/c4ccco4)c3)nc2c1,"10 µM [rising, partial curve, poor fit]",–
CCOc1ccccc1NC(=O)c1cccc(N2C(=O)CCC2=O)c1,"10 µM [falling, partial curve, poor fit]",–
Cc1nc(C(F)(F)F)ccc1C(=O)NN1CCOCC1,"22.4 µM [rising, partial curve, poor fit]",–
C/C(=C\C(=O)c1cccnc1)Nc1ccc(O)cc1,"8.2 µM [falling, single point]",–

# Given tab-delimited: 3 of the compounds above
Compound	AC50 [1]	AC50 [2]
CCN1CCN(C(=O)c2cn(CC)c3ccc(S(=O)(=O)N(C)C)cc3c2=O)CC1	29.1 µM [rising, single point]	–
CCOC(=O)c1cnc2c(-c3ccccc3)cnn2c1C	0.447 µM [falling, full curve, poor fit]	–
O=C(NC1CCCCC1)C(=S)NC1CCCCC1	2.82 µM [rising, full curve, poor fit]	–

# Two of these compounds, reformatted.
Compound	AC50 [1]	AC50 [2]
COc1ccc(C2CC(c3ccccc3)=NN2S(=O)(=O)c2ccccc2)c(OC)c1 (stereo not drawn)	1.3 µM [rising, full curve, poor fit]	–
CN1CCC(Oc2ccc(Sc3ccccc3)cc2)CC1	16.4 µM [falling, single point]	–

# (list continues)

Compound,AC50 [1],AC50 [2]
O=c1[nH]c(Cc2ccccc2)nc2c1oc1ccccc12,"5.8 µM [rising, single point]",–
COC(=O)Nc1ccc2c(c1)ncn2C1CCCCC1,"1 µM [rising, full curve, poor fit]",–
FC(F)(F)c1ccc(N/N=C/c2cccnc2)nc1,"11.2 µM [falling, single point]",–
C#C[C@]1(O)CC[C@H]2[C@@H]3CCC4=CC(=O)CC[C@@H]4[C@H]3CC[C@@]21CC,"5.62 µM [rising, single point]",–
COc1nc(N=C(N)N)nc2c(C)cccc12,"0.355 µM [falling, full curve, poor fit]",–
O=Cc1ccc(O)c2ncccc12,"0.355 µM [falling, partial curve, poor fit]","0.631 µM [falling, full curve, poor fit]"
CC1Cc2ccccc2N1S(=O)(=O)c1cnc[nH]1 (stereo not drawn),"6.51 µM [rising, partial curve, poor fit]",–
NC(=O)c1oc2ccccc2c1NC(=O)C1COc2ccccc2O1 (stereo not drawn),–,"0.126 µM [rising, full curve, poor fit]"
Cc1cc(N(C)Cc2ccccc2)nc2cc(O)ccc12,"6.31 µM [rising, single point]",–
CC(C)c1ccc(N2C(=O)CC(Sc3ncn[nH]3)C2=O)cc1 (stereo not drawn),"8.2 µM [falling, partial curve, poor fit]",–
Cc1ccc(NC(=O)COC(=O)c2ccc(Cl)nc2)cc1S(=O)(=O)N1CCCCC1,"8.2 µM [rising, partial curve, poor fit]",–
Cn1c(=O)c(C(=O)NNC(=O)c2ccccc2Cl)c(O)c2ccccc21,"4.47 µM [falling, full curve]",–
O=C(CSc1nc2ccc(Cl)cc2[nH]1)c1cccs1,"0.112 µM [rising, full curve, poor fit]",–
COc1ccc(N(CC(=O)N2CCN(c3cccc(C)c3)C(C)C2)S(=O)(=O)c2c(C)n[nH]c2C)cc1 (stereo not drawn),"31.6 µM [falling, single point]",–
N#C/C(=C\c1ccc(O)c(O)c1)C(=O)NCc1ccccc1,"23.1 µM [falling, single point]",–
O=C(COc1ccccc1)n1nc(-c2ccc(Cl)cc2)nc1NCc1ccco1,"29.1 µM [falling, single point]",–
N#C/C(=C(/O)c1ccco1)c1nc2ccccc2s1,"1.58 µM [falling, full curve, poor fit] and 2.82 µM [falling, full curve, poor fit]",–
Cc1cc2c(cc1C)N(C(=O)CSC1=NCCS1)C(C)(C)c1ssc(=S)c1-2,"20.6 µM [falling, single point]",–
C/C(=N\Nc1ccccn1)c1ccc(C(C)C)cc1,"12.6 µM [rising, partial curve, poor fit]","17.8 µM [falling, single point]"
COc1ccccc1C(=O)Nc1ccc(C)cc1C(=O)c1ccccc1,"14.6 µM [rising, partial curve]",–
O=S(=O)(Nc1cc(F)ccc1F)c1cccc2nsnc12,"6.31 µM [rising, single point]",–
COc1ccccc1NC(=O)CSc1nc(O)cc(=O)n1-c1ccccc1OC,"4.47 µM [falling, full curve]",–

Compound,AC50 [1],AC50 [2]
O=C1Nc2c(Br)cccc2C1=O,"20.6 µM [rising, single point]","29.1 µM [falling, single point]"
CCCCSc1nc(C)cc(SCC(=O)N/N=C/c2ccccc2)n1,"4.47 µM [rising, full curve]",–
COc1ccc(CCNC(=S)NCc2ccc(Cl)c(Cl)c2)cc1OC,"14.1 µM [falling, single point]",–
CCN1C(=O)/C(=C/C=C2/SCCN2C)SC1=S,"35.5 µM [rising, partial curve, poor fit]",–
O=C(CSc1ccc(F)cc1)N1CCC(c2nc3ccccc3s2)CC1,"35.5 µM [falling, single point]",–
CCCCS(=O)(=O)c1sc2nc(C)cc(C)c2c1N,"7.31 µM [rising, partial curve, poor fit]",–
O=c1oc2c(O)cccc2cc1-c1nc2ccccc2[nH]1,"5.01 µM [falling, full curve]",–
Cc1ccccc1C(=O)Nc1cccc(-c2ccc(N3CCOCC3)nn2)c1,"6.51 µM [rising, single point]",–
C/C(=N\NC(=O)c1cccc(N2CCCC2=O)c1)c1ccc(N)cc1,"35.5 µM [falling, single point]",–
O=C(c1c(F)cccc1F)N1CCCC(c2nc(-c3ccc(Cl)cc3)no2)C1 (stereo not drawn),"0.708 µM [rising, full curve, poor fit]",–
C=CC[C@]12CCc3sccc3C1N(c1ccc(C(=O)OCC)cc1)C2=O (stereo partly drawn),"23.1 µM [falling, single point]","18.4 µM [rising, partial curve, poor fit]"
COc1ccc(-c2noc(CCCC(=O)Nc3cccnc3)n2)cc1OC,"2 µM [rising, partial curve, poor fit]",–
CC(=O)OCC(=O)[C@H]1CC[C@H]2[C@@H]3CCC4=CC(=O)CC[C@]4(C)[C@H]3CC[C@]12C,"7.31 µM [rising, partial curve]",–
COc1ccccc1C(=O)Nc1nnc(-c2ccco2)s1,"1.84 µM [falling, full curve]",–
CN(C)c1ccc(/C=N/NC(=O)c2ccccn2)cc1,"1.58 µM [falling, full curve]",–
N/C(=N\OC(=O)c1ccc2ccccc2c1)c1ccccn1,"5.01 µM [falling, partial curve]",–
O=C(CCCc1nc2ccccc2s1)NCc1ccccc1,"0.651 µM [rising, partial curve, poor fit]",–
CCNC(=O)/C(C#N)=C/c1c(N2CCN(Cc3ccc4c(c3)OCO4)CC2)nc2c(C)cccn2c1=O,"29.1 µM [falling, single point]",–
O=[N+]([O-])c1ccc2nc(-[n+]3c(-c4ccccc4)cc(-c4ccccc4)cc3-c3ccccc3)[nH]c2c1,"2.91 µM [rising, single point]",–
O=C(CCCN1C(=O)CCC1=O)Nc1ccc2c(c1)OCO2,"23.1 µM [rising, single point]",–
